We go through two substances from patent US12378328B2 (Nanyang Technological University, priority 2019, dated 2025).

A short description of this data set: general procedure: solution-phase peptide synthesis; HATU/HOAt/DIPEA.

On to “Boc-Ala-D-iso-Glu(OBn)-Lys(Fmoc)-D-Ala-D-Ala-OMe”, for which the step yield (coupling step) was 77%.

“Boc-Ala-D-Iso-Glu(OBn)-Lys(Rhodamine)-D-Ala-D-Ala-OMe” gave a conjugation yield (conjugation step) of 64%.
